# Results are given in words; binding and its absence hold for the method and conditions named. In cells and extracts the contact can be indirect. A result given as binding can be weak or reduced; the word gives no strength. For part of these data: Where a sequence is shown, tags or fusion partners need not be part of it.
# The chains behind the UniProt entries cited, without tags or fusion partners. Where a name states a change or a piece, a line headed by the entry shows the natural chain unless it says otherwise.
# UniProt A4HV28: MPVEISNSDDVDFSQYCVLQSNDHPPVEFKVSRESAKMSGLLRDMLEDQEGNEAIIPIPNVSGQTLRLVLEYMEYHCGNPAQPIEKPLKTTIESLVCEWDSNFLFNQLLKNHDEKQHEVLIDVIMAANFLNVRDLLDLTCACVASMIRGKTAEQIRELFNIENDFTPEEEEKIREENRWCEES
# UniProt Q13616: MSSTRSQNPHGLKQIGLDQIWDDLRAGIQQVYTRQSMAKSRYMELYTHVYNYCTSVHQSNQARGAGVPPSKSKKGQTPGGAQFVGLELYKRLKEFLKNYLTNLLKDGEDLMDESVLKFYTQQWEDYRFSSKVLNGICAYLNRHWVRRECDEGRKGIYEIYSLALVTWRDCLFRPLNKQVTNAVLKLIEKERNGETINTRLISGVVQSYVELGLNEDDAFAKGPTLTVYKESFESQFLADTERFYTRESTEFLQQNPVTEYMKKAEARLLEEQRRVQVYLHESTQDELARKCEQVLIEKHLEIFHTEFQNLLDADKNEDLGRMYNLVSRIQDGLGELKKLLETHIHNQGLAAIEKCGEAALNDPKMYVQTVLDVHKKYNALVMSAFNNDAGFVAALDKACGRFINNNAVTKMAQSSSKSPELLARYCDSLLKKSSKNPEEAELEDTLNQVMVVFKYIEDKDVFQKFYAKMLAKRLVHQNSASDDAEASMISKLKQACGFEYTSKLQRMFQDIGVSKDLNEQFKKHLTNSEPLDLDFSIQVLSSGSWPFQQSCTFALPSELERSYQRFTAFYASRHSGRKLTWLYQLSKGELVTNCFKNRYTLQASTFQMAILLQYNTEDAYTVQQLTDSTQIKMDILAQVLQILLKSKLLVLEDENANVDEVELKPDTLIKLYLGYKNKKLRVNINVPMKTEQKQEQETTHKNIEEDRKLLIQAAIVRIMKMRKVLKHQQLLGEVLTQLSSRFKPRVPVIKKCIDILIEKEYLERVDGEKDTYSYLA
# UniProt A4I137: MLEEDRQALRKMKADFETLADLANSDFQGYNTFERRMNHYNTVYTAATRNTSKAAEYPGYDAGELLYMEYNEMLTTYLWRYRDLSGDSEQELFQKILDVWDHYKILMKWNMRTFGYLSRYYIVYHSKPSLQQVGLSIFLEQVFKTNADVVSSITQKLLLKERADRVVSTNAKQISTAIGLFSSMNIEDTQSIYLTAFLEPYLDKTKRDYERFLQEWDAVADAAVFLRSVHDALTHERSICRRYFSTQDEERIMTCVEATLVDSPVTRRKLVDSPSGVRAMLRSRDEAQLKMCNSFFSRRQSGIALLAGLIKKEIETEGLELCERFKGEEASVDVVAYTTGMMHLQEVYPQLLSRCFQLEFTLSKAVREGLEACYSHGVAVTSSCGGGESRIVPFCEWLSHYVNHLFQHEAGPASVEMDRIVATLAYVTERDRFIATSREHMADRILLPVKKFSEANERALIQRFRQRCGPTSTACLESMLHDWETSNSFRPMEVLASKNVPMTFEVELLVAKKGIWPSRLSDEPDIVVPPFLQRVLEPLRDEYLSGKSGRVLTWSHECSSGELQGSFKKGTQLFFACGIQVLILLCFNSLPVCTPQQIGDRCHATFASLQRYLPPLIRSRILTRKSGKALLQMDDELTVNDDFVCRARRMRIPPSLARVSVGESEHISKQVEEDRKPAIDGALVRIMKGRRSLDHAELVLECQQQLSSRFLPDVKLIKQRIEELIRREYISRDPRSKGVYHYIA
# UniProt A4HZL7: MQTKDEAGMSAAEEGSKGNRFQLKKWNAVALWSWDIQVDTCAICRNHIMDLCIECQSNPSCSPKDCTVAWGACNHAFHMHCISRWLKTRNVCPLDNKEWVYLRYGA
# UniProt P63208: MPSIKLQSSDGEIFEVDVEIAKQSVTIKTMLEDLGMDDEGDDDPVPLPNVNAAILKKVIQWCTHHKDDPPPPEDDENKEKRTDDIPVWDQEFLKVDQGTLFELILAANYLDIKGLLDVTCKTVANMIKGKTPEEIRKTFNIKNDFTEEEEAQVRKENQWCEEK
# Assays:
# Assay in all cases: co-IP; HEK293T cells co-transfected with the plasmids; NP-40 lysis buffer (50 mM Tris-HCl pH 7.2, 225 mM KCl, 1% NP-40); about 3 mg lysate on anti-FLAG agarose beads 3 h at 4 °C; eluted with FLAG peptide; western blot
# [1] = biological target: LinfSkp1-FLAG (L. infantum SKP1-like protein, LINF_110018100) (L. infantum) (UniProt A4HV28)
# CUL1-FLAG (Hs) (human) = CUL1-FLAG (Hs) (human) (UniProt Q13616)
# [2] = biological target: T1, 2xFLAG-FBXO7 (Hs) (human) (UniProt Q9Y3I1)
# T1 sequence: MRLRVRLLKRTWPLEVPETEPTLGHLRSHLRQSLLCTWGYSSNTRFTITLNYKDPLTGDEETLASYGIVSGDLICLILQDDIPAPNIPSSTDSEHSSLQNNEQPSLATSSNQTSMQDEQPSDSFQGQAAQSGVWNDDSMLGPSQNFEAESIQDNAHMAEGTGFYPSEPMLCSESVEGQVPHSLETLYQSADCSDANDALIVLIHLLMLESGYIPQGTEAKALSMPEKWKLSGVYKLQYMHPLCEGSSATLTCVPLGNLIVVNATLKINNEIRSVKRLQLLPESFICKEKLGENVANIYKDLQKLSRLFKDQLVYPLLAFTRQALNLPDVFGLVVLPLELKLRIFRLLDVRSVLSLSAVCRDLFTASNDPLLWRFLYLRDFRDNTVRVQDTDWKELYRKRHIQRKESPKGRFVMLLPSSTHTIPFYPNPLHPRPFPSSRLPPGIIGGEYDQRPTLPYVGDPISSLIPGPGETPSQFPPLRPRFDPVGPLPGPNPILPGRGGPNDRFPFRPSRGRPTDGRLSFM
# [3] = biological target: LinfCul1-FLAG (L. infantum cullin-like protein-like protein, LINF_240029100) (L. infantum) (UniProt A4I137)
substance,measurement,setting,value
"LinfCul1-myc (L. infantum cullin-like protein-like protein, LINF_240029100) (from UniProt A4I137)",binding,[1],binds
"LinfRbx1-HA (L. infantum ring-box protein 1 - putative, LINF_210005300) (from UniProt A4HZL7)",binding,[1],binds
same,binding,CUL1-FLAG (Hs) (human),binds
"LinfSkp1-HA (L. infantum SKP1-like protein, LINF_110018100) (from UniProt A4HV28)",binding,[2],binds
same,binding,CUL1-FLAG (Hs) (human),binds
SKP1-HA (Hs) (from UniProt P63208 1-163),binding,[3],binds
